Reference: patent US8231888B2, “Isoxazolines for controlling invertebrate pests” (priority 2005, dated 2012)
Where two headings read alike, the source gives them in different places. Some of these results come from one statement about several compounds together.

Legend:
[1] = system: cat flea (Ctenocephalides felis Bouche); assay: Test E: control of cat flea on orally dosed CD-1 mouse; type: in vivo; conditions: 10 mg/kg oral, fleas applied 2 h after dosing, mortality 48 hours after flea application
Procedure: For evaluating control of the cat flea (Ctenocephalides felis Bouche), a CD-1® mouse (about 30 g, male, obtained from Charles River Laboratories, Wilmington, Mass.) was orally dosed with a test compound in an amount of 10 mg/kg solubilized in propylene glycol/glycerol formal (60:40). Two hours after oral administration of the test compound, approximately 8 to 16 adult fleas were applied to each mouse. The fleas were then evaluated for mortality 48 hours after flea application to the mouse.

[2] = system: potato leafhopper (Empoasca fabae Harris); type: in vivo; conditions: 6 days, 19-21° C.
[3] = sprayed at 250 and/or 50 ppm, no asterisk (not limited to 250 ppm)

SMILES	flea mortality [1]	control efficacy: mortality [2, 3]	other results
CCNC(=O)c1ccc(C2=NOC(c3cc(Cl)cc(Cl)c3)(C(F)(F)F)C2)c2ccccc12 (centres unmarked) [Compound 10]	≥ 50%		
O=C(NCc1ccccn1)c1ccc(C2=NOC(c3cc(Cl)cc(Cl)c3)(C(F)(F)F)C2)c2ncccc12 (centres unmarked) [Compound 106]			control efficacy: mortality ([2]; asterisk: observed only at 250 ppm): ≥ 80%
CC(NC(=O)c1ccc(C2=NOC(c3cc(Cl)cc(Cl)c3)(C(F)(F)F)C2)c2ccccc12)c1ccc([N+](=O)[O-])cc1 (mixture of isomers) [Compound 28]		≥ 80%	
CC(NC(=O)c1ccc(C2=NOC(c3cc(Cl)cc(Cl)c3)(C(F)(F)F)C2)c2ccccc12)c1ccc(F)cc1 (mixture of isomers) [Compound 31]		≥ 80%	
O=C(NCC(F)(F)F)c1ccc(C2=NOC(c3cc(Cl)cc(Cl)c3)(C(F)(F)F)C2)c2ccccc12 (centres unmarked) [Compound 1]	≥ 50%		
O=C(CNC(=O)c1ccc(C2=NOC(c3cc(Cl)cc(Cl)c3)(C(F)(F)F)C2)c2ccccc12)NCC(F)(F)F (centres unmarked) [Compound 51]	≥ 50%		
COCCNC(=O)c1ccc(C2=NOC(c3cc(Cl)cc(Cl)c3)(C(F)(F)F)C2)c2ccccc12 (centres unmarked) [Compound 41]	≥ 50%		
NC(=O)c1ccc(C2=NOC(c3cc(Cl)cc(Cl)c3)(C(F)(F)F)C2)c2ccccc12 (centres unmarked) [Compound 36]		≥ 80%	
